Assay results reported in article doi:10.1101/318840.
Results are given in words; binding and its absence hold for the method and conditions named. In cells and extracts the contact can be indirect. Some entries that bind do so weakly or less than the wild type. Sequences can lack the tags named with a protein.

Target: T1, FLAG-tagged viperin (human) (human) (UniProt Q8WXG1)
T1 sequence: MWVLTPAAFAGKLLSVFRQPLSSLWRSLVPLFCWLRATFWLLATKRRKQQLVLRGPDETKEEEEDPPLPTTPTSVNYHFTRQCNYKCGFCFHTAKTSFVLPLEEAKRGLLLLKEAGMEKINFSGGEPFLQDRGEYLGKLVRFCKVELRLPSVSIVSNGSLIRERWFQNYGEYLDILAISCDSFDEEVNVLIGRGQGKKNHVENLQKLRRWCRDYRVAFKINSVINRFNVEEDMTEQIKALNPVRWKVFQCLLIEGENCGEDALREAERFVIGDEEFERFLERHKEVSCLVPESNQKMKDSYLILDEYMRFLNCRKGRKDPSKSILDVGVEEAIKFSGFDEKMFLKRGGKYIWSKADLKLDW
Test: co-IP

binding: binds
Substance: interleukin-1 receptor-associated kinase-1 (IRAK1), N-terminal Myc tag (from UniProt P51617-1 1-712) (enzyme)
